Binding data for two substances are collected here from PMC4669748.

Chains of the proteins cited; added tags and fusions are not shown.
UniProt P31749: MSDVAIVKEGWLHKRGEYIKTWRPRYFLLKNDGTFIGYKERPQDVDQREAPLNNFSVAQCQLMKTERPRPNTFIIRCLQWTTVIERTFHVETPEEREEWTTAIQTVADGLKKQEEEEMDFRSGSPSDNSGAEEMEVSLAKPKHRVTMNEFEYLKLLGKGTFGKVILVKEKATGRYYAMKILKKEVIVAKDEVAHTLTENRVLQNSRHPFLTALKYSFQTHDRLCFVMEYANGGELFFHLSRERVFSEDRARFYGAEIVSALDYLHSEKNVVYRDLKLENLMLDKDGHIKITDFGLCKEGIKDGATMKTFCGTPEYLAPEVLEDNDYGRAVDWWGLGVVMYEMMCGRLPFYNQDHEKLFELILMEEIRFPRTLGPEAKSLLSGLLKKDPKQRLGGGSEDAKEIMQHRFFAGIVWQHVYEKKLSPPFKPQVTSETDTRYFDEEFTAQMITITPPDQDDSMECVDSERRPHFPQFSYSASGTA

These are yes or no findings as the source states them, for the method shown. Binding seen in cells or lysates may run through a third protein. Some entries that bind do so weakly or less than the wild type. For some assays here: Sequences can lack the tags named with a protein.

Assay [1] has as its target T1, GST-fused N-terminally truncated BTG3, C-terminal domain (amino acids 108-252) (UniProt Q14201).
T1 sequence: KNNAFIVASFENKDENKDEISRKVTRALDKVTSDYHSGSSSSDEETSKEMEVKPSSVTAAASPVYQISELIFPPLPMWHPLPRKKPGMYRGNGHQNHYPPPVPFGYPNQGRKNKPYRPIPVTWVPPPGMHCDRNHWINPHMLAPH
Description: pull-down; recombinant GST or GST-fused BTG3 (full-length, C-terminally or N-terminally truncated) incubated with 293 T lysates expressing HA-tagged AKT; pulled down by GSH beads; western blotting; only the target purified. (In general: Immunoblotting shows a protein as a band on a membrane.)

The target of assay [2] is T2, endogenous BTG3 (human (endogenous in 293T)) (UniProt Q14201).
T2 sequence: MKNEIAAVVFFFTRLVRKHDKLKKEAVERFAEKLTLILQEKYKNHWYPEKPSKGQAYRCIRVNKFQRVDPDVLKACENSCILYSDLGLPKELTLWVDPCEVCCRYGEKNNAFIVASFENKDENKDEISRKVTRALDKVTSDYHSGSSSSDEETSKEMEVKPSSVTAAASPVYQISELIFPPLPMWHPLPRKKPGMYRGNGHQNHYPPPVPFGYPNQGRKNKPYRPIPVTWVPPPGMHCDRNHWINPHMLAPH
Description: co-IP; endogenous proteins from 293 T lysates, immunoprecipitated with anti-BTG3 or anti-AKT (no. 610860; BD Biosciences) antibody.

For the substance “HA-tagged AKT (from UniProt P31749 1-480)”, the binding result in assay [1] is given as “binds”.
As for “endogenous AKT (from UniProt P31749 1-480)”, in assay [2], the binding entry is “binds”.
